Measurements from PMC9160049, “Cryo-EM structures of Gid12-bound GID E3 reveal steric blockade as a mechanism inhibiting substrate ubiquitylation” (Nature Communications, 2022).
These are yes or no findings as the source states them, for the method shown. For some assays here: Binding seen in cells or lysates may run through a third protein. Some entries that bind do so weakly or less than the wild type. For some assays here: Where a sequence is shown, tags or fusion partners need not be part of it.

Chains of the proteins cited; added tags and fusions are not shown. Lines headed by an entry give the natural chain unless they say otherwise; changes in a name come on top.
UniProt Q12027: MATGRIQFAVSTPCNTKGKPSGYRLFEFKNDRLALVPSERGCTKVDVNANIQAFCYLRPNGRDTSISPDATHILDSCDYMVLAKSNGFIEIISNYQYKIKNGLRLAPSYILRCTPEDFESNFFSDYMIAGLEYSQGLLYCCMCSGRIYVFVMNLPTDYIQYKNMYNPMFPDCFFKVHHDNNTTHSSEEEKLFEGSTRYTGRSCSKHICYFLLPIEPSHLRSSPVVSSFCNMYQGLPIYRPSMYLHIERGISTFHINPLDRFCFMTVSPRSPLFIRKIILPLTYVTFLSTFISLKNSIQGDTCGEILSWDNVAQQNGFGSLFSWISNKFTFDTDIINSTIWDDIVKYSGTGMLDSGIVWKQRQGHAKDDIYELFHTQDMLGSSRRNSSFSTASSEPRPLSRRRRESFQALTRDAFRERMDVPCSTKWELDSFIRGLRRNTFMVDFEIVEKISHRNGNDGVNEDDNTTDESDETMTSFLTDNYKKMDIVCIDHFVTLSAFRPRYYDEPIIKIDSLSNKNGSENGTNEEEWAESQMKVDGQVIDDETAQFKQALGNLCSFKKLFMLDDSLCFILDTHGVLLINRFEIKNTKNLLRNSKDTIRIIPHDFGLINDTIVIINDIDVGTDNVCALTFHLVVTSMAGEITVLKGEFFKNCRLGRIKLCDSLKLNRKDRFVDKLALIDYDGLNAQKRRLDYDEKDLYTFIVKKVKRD

What was measured:
[1] = molecular target: T1, 2×Strep-Gid4 (S. cerevisiae) (UniProt P38263); assay: pull-down; 0.5 µM purified GID^SR4 or Gid12 bound GID^SR4 (Gid8-3×FLAG, untagged Gid4) mixed with 0-2.5 µM 2×Strep-Gid4 or 4 µM 2×Strep-Gid4^mut, 20 min at room temperature; Strep-Tactin resin at 4 °C; 25 mM HEPES pH 7.5, 150 mM NaCl, 1 mM DTT; SDS-PAGE, Coomassie; both purified
T1 sequence: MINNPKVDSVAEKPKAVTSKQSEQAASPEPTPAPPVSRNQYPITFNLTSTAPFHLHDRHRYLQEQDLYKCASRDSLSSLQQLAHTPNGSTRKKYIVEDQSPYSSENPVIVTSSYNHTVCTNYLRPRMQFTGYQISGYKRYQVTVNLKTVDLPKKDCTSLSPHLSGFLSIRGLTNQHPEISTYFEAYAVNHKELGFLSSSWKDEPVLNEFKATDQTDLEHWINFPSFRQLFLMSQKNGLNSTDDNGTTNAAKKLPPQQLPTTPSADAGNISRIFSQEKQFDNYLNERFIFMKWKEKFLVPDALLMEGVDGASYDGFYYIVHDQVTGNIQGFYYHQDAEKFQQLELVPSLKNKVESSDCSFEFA

[2] = molecular target: T2, 2×Strep-Gid4_(1-358aa) (with C terminal 359-362 aa deleted) (S. cerevisiae) (UniProt P38263); assay: as above
T2 sequence: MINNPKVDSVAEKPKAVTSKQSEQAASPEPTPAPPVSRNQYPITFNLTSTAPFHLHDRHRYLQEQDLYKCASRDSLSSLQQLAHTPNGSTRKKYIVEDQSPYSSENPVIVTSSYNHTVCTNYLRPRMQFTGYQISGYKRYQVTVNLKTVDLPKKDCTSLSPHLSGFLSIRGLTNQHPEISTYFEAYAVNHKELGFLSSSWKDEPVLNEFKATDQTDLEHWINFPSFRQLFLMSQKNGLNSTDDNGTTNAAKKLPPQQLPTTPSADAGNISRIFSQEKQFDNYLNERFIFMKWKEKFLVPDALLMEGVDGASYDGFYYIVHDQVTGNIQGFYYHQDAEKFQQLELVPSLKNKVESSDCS

[3] = molecular target: T3, 2×Strep-Gid1 (Twin-Strep tag fused at the N-terminus of Gid1) (S. cerevisiae) (UniProt P53076); assay: cryo-EM structure; Gid12-SRS (Gid12-Gid4-Gid5-Gid1-Gid8) co-expressed in Hi5 cells and purified as a complex; 3.3 Å; 25 mM MES pH 6.5, 150 mM NaCl, 1 mM DTT; both purified
T3 sequence: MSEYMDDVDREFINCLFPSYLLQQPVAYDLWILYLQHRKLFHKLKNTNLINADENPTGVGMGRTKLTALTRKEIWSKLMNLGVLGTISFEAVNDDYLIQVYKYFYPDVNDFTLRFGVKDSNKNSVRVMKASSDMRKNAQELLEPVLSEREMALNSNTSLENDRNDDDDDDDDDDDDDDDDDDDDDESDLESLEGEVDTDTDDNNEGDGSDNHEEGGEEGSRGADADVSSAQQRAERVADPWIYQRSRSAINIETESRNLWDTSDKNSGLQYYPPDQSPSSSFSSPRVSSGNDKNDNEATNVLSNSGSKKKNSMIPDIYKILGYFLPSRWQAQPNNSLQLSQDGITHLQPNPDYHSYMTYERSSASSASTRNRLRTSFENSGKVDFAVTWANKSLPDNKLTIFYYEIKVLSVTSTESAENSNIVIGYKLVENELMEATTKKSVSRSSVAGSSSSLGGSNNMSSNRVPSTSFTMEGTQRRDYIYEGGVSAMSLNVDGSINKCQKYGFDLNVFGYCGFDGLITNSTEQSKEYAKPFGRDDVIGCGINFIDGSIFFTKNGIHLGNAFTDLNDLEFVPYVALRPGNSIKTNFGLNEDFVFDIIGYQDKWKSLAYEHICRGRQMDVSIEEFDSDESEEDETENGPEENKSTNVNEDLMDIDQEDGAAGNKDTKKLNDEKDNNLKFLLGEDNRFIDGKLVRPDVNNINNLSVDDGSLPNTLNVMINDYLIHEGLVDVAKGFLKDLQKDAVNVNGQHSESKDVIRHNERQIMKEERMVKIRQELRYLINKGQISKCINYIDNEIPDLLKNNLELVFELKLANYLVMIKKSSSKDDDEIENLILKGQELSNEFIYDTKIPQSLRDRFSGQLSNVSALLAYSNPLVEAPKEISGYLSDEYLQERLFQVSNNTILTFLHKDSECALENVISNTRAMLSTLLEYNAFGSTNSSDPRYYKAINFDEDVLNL

[4] = molecular target: T4, Gid5 (recombinant, untagged, co-expressed) (S. cerevisiae) (UniProt P40547); assay: as above
T4 sequence: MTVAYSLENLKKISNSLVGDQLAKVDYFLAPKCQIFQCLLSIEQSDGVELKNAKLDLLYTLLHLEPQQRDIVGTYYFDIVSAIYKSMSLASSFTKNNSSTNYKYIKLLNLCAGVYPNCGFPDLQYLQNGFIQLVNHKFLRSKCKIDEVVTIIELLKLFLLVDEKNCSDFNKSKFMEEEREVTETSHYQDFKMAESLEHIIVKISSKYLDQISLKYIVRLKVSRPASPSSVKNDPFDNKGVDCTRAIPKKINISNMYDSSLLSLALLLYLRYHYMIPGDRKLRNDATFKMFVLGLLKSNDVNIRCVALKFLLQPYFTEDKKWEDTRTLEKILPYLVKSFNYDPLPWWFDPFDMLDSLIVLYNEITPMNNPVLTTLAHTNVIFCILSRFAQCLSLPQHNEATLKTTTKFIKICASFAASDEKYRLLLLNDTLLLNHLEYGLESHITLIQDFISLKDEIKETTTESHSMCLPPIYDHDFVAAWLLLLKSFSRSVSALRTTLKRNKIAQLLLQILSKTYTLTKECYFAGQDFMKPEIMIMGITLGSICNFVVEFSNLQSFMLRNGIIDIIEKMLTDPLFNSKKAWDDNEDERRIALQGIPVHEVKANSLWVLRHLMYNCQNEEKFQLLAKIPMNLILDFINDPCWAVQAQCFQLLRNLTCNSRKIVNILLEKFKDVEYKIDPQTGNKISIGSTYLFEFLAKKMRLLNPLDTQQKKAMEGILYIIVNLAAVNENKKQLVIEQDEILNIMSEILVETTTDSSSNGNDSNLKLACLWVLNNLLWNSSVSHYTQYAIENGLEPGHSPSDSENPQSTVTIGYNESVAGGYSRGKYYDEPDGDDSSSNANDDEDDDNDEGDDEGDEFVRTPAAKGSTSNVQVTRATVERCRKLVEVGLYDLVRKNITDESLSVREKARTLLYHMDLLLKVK

[5] = molecular target: T5, Strep-Gid5 (N-terminal Twin-Strep-tagged Gid5) (S. cerevisiae) (UniProt P40547); assay: pull-down; Hi5 insect cells co-infected with baculoviruses for all GID subunits, Gid12 and Moh1 or all but one; pulldown of GST-Gid1, Twin-Strep-Gid5 or Twin-Strep-Gid1 from lysate; 50 mM Tris-HCl pH 8.0, 200 mM NaCl, 5 mM DTT; SDS-PAGE, Coomassie
T5 sequence: T4 sequence

[6] = molecular target: T3, 2×Strep-Gid1 (Twin-Strep tag fused at the N-terminus of Gid1) (S. cerevisiae); assay: pull-down; Hi5 insect cells co-expressing combinations of 2×Strep-Gid1, Gid8, Gid5, Gid4 and Gid10 (with Gid12); Strep-Tactin pulldown on Gid1, 4 °C; 50 mM Tris/HCl pH 7.5, 200 mM NaCl, 5 mM DTT; SDS-PAGE
[7] = molecular target: T6, Gid1 (recombinant, untagged, in Chelator/Cage GID^SR4) (S. cerevisiae) (UniProt P53076); assay: cryo-EM structure; Cage-GID^SR4 prepared without Gid12, co-expressed in Hi5 cells and purified; 19.8 Å map fitted with three Chelator-GID^SR4 models; both purified
T6 sequence: T3 sequence

GID^SR4 complex with 3×FLAG at the C-terminus of Gid8 (untagged Gid4) (from UniProt P53076 1-958; Q12508 1-421; P38263 1-362; P40547 1-921; P40208 1-455; P40492 1-516)
binding [1]: binds
binding [2]: no binding (tested: 4 µM)

Gid12 bound GID^SR4 complex with 3×FLAG at the C-terminus of Gid8 (from UniProt Q12027 1-708; P53076 1-958; Q12508 1-421; P38263 1-362; P40547 1-921; P40208 1-455; P40492 1-516)
binding [2]: no binding (tested: 4 µM)

B1: Gid4 (recombinant, untagged, co-expressed) (protein, UniProt P38263 1-362)
chain: T1 sequence
binding [3]: binds
binding [4]: binds
binding [5]: binds

B2: Gid10 (protein, UniProt P53242 1-292)
chain: MTSLNIMGRKFILERAKRNDNIEEIYTSAYVSLPSSTDTRLPHFKAKEEDCDVYEEGTNLVGKNAKYTYRSLGRHLDFLRPGLRFGGSQSSKYTYYTVEVKIDTVNLPLYKDSRSLDPHVTGTFTIKNLTPVLDKVVTLFEGYVINYNQFPLCSLHWPAEETLDPYMAQRESDCSHWKRFGHFGSDNWSLTERNFGQYNHESAEFMNQRYIYLKWKERFLLDDEEQENLMLDDNHHLEGASFEGFYYVCLDQLTGSVEGYYYHPACELFQKLELVPTNCDALNTYSSGFEIA
binding [6]: binds

B3: Gid7 (recombinant, untagged, in Chelator/Cage GID^SR4) (protein, UniProt P25569 1-745)
chain: MSHTNKIAYVLNNDTEETASPSSVGCFDKKQLTKLLIHTLKELGYDSAANQLLLESGGYQNESNHIQTFFKLIKTGQFHLINWQIVCSLPLAHSSPLRSEWLQRLLIPTPTPATTSLFDHMLLQLQYLQQLMSSVNSSTCSDAEIATLRNYVEIMILVNRQIFLEFFHPVTNSASHKGPHTALPVLYLRKILKNFIEIWDSLLVSNDQFLNEENIFNPETTLRELSTYLTNPKLTAQLNLERDHLIDAISKYIDPNELVPKGRLLHLLKQAIKYQQSQDIFNIIDPDDDASFSSPPHRINLLQDNFSHDLTVTFQEWKTIQDTTDEIWFLTFSPNGKYLASATSESSRGYFITVYDVEQDFKIYKTCVSLSQSVLYLMFSPDSRYLVACPFSEDVTIYDMNATSLPDASATDSFLLYPSTRLSPMDSFKLDTTTYPDDTESSASSSSRPANANSNQSRVWCCDAFHTAERAGWMVVGSPDREAIVHSLTTKESLFSLKGRTCIALGHDENISGRKSIDPAKVLYKPTSSNGNWQYVEDDETFPRVHDVKISYDDKYVLLMTHQGVIDVYDFSGFPSKEELSKQTVDPKNFLIPRIARLDVGKNMTCISLPLNTTHQGFHRQQISESQHLVLVSLQDNELQMWDYKENILIQKYFGQKQQHFIIRSCFAYGNKLVMSGSEDGKIYIWDRIRGNLVSVLSGHSTVMSNSTKPMGKNCNVVASNPADKEMFASGGDDGKIKIWKISRN
binding [7]: binds
